Test results taken from article PMC9963772.

By UniProt entry, the sequences of proteins in these tests, tags left out. Where a name states a change or a piece, a line headed by the entry shows the natural chain unless it says otherwise.
UniProt C1G3N5: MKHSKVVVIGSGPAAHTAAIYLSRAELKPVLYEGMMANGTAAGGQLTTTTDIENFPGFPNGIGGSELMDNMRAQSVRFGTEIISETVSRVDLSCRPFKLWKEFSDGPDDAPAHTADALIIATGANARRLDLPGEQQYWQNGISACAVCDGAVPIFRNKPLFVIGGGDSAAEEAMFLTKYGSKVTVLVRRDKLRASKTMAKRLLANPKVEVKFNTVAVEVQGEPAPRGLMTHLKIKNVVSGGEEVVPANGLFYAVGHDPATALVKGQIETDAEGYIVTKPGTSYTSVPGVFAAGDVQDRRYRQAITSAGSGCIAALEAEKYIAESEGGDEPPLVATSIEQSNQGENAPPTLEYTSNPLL
UniProt C1G7K6: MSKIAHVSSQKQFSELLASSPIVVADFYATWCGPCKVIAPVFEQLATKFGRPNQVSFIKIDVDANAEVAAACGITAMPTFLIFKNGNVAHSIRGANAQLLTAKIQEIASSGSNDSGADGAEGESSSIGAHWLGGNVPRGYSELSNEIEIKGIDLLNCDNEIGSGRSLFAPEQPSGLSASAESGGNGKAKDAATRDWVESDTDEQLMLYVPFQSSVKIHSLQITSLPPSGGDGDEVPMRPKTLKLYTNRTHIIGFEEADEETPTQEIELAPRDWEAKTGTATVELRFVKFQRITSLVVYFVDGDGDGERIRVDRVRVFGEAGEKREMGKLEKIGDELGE
UniProt C1GJI6: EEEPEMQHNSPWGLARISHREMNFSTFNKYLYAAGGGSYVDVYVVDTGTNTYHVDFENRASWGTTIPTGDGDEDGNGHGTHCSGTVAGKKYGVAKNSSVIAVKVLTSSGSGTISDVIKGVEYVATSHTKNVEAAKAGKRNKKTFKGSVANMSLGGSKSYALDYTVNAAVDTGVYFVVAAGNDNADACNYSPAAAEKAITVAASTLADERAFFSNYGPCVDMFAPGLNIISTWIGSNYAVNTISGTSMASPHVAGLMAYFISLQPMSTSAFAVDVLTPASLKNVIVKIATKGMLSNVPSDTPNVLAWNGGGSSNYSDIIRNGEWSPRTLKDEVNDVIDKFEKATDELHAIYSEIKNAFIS

T1: Copper metallochaperone Atx1 of Paracoccidioides brasiliensis, recombinant (Paracoccidioides brasiliensis) (UniProt C1G2I6)
T1 sequence: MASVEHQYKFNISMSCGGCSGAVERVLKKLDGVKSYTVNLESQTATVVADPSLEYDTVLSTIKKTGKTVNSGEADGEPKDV


Target: T1, Copper metallochaperone Atx1 of Paracoccidioides brasiliensis, recombinant (Paracoccidioides brasiliensis)
Assay: affinity purification with mass spectrometry; recombinant PbAtx1 immobilised on Ni-NTA resin; 300 ug P. brasiliensis (Pb18) protein extract, 2 h at 4 °C; 5 washes with 50 mM sodium phosphate, 500 mM NaCl, 20 mM imidazole, pH 8.0; eluted with 250 mM imidazole; NanoUPLC-MSE; control: resin without PbAtx1; only the target purified

Row | Molecule | binding
1 | Mitochondrial zinc maintenance protein 1, mitochondrial | binds
2 | Thioredoxin reductase (from UniProt C1G3N5) | binds
3 | Thioredoxin (from UniProt C1G7K6) | binds
4 | Serine proteinase (from UniProt C1GJI6) | binds
5 | Aspartyl aminopeptidase (protein, UniProt C1GA81 1-601) MLSKLAGKSLCTARSSVSSLARESIAAHSNPARNIFFSLPHQSPPEHQHPMQPWHTMTHSRKLSSFPPLSTSTFKAQANDFLSFVNASPTPFHAVASASKRLVDAGFKEVKERDSWSSTCKPGGKYYVTRNGSTIIAFAIGQKWKPGNSISMIGAHTDSPCLRIKPVSKRTADGFVQVGVETYGGGLWHTWFDRDLGVAGRVMVRNADESIEAKLVHINRPILRIPTLAIHLERQETFSFNKETHLFPIAGLVAAELARKDKDPKAKEYLEIRSKEKKNNGNSGNNGNDAASNATFSPLKPTMERHHPFLIELIASELSTTPHDIVDFELLLYDTQKACLGGLLDEFIFSARLDNLNMSFCAIMGLINSLAQPGALDKESSIRLVALFDDEEIGSRTAQGAFSNILTAILHRLSVLPAETSASAKAPPPDLSTAYEQSLSTSFLVSADMAHSVHPNYSVKYESDHKPEMNKGPVIKINANAFYATNSPGIVILQESARLAGKNHHDDQAGSTSATSPSSETPLEGVPLQLFVVRNDSSSGSTIGPMLSASLGVRTVDLGNPQLSMHSIREMGGSNDVGYAIRLFESYFEHYTELAGKILVG | binds
6 | hypothetical protein PADG_07883 (protein, UniProt C1GL97 1-81) MGHSGFSQYRLYYGGVARVDSALSVRDGTGAGAGAGAGEAAVDVAMKRKKMNEKPDTIDQAHIHRDDDDDDDDDDDDDDND | binds
7 | hypothetical protein PADG_00449 (protein, UniProt C1G0Q9 1-759) MYNPYQPPSPFGRPPEFGGFPGAPPGMAPPPGMSAPGTGPPPAAQQSNAQQPGRPGGFPPNFQPPPNMPNINFSAPVIRLGTSGTPKSATPVESGRERGGESGGRRGGPGGHSLESQRQNLRDAMLQLQPPTKDEIVRTIFIGGITEGLSSDEEIELILRTAGNLKRWIRATDADDKPCKFGFAEYEDPESLSTAVEVLKDVEVPVKKPVPAKEVGKVEEDPDKSKLLVIIDDSSLKYIEQFESTTERNPEAEQARLDGARAALAKVLADLTHPPSPAKVDALAQVVDSEGDSEMKDGEAEKDGTPAEVVTIPITVEDELSDIPAEMRETVAKEIAAFRERSNRRDLERLKREEELESLERARAGGSRPNRLTSPPPTAPSGPAGGANGIPLGPRDRGIPNAPSAPKGFGHHIPRDYQKGVSFVNGSGINGANEDEDTDASDEELERRRKEKRAVEAEKQYLDQERRWLNRERSRTAAVEREKNRDREEDIRLQEEKQIMAKRLREWNDDIEASRKVEEYYADRGVWIRNRAAFRNREVSMDEADRAAEEREMARTQQQRDQVRGMADDFLARQAEELETRNQVPREPQRFKLSLGAAAQKAQATVRRTVAEVEGLLEDEEDTGAATKRPLTSIKFDTAAESAGLTDEERAQAARQLAADIPSDKEGLWNWQVNWEFVDESVLGEQLKPFVEKKIMEYLGVQEQMLVDVVEEHVRKRGPPQELVEQLEGALDEEAEVLVKKLWRMIIFFSESEKRGLSG | binds
8 | hypothetical protein PADG_03788 (protein, UniProt C1G952 1-306) MAPDRFGKSVFLGNIPYNLTEEQVKDILSSAGTVTKFRLMINPETGKPKGYGFADFADADAAASAVRNLNDYEIMGRKIRVDWPHNNEKDSVPPDYSQQSQMGMMQGMQGQDQSQPPLLPQLPPGTDLPPNLTCPNAISQTLASLPAPQLLDVITQMKSLVMADPARATELLRQAPHLAYAIFQALLLMNLVDYSVLGSVVEQASQSQPQPSQQTSQIPQQFQPYPSVPGQISTPPIQHTPFAPPTMPPQPQQQSQQQATQPQIPGHDELLQQVLNMPQSAIDALPPTERSQIMLLRQQLMQGGMR | binds
9 | hypothetical protein PADG_04855 (protein, UniProt C1GB54 1-453) MHGEGEFDLAILASQRNDNATMGVLSPIATATATMTEPARAKTTKTTTTTTTTTTTDSSMHLPFSDSAIDMDTESSGNADQTPETTTIPTTRDTMNATGKSHLQSLTTITTTMIKERLIHLTHLITDSDSHPKPDNRHNKDQNSRNEYSNSSPYHPLTSHATSPSTSLSWSPQKSIAINRYLDGIEALLLALHITGFSSGASSEEEEEEEEEEEEEEEEEEKEVKVDRGENERKTNHCCTLSNNHHDPRLACISLEAGCQNANTKPHNQNQIQTKLDSQLDDVIRDLKVVTGSLEQRRAECLHLNAVFTMKCEKLAQRILDLEEQMEELRAKKIENTIELEGLKGTVRGLEGWIKRWKMRQCEDEEGEEGRNSKHAWSETSDHGRGQWGKPGRVLWGGDGDYDSNDGDVDDDTLMDGVSAWLRDWRDVEEGFRIRARLRERMKAVRRGPGKSE | binds

No constants are given. Whether binding was seen depends on the method and setting. In cells and extracts the contact can be indirect. Here binding means that the protein was enriched with, or labelled near, the bait; the list need not be complete.
